In US9089514B2, “Composition and method for inhibiting biogenic sulfide generation” (Arkion Life Sciences, priority 2010, dated 2015):
“And” between values parts separate entries of the source, which are not always exact repeats. Equal values may be shown once.

Tested on: biofilm on the granite chips
Assay: Test Series #3a: amount of AHQ deposited in the biofilm
Design: species or system Prudhoe Bay sulfate reducing bacteria
Conditions: 0.254 mg AHQ

[Na+].[Na+].[O-]c1c2ccccc2c([O-])c2ccccc12 [AHQ, dialkali salt solution, anthrahydroquinone di-alkali salt]
% AHQ Deposited (centrifugation 20 sec): 30% and 33% | % AHQ Deposited (centrifugation 60 sec): 36% and 38%
